Among all 400,000 compounds or so, about 5,500 (1.4%) were called active. Inconclusive means that the source gave no clear call. Such entries were picked first, then a sample of the others. Calls come from the whole dose curve; as a rule, active = well fitted cell-killing curve with a large enough effect; inconclusive = small, poorly fitted or top-dose-only effect, or effect the other way; inactive = flat fitted curve, though single readings scatter. A potency beside an inconclusive call is a rough fit, not a confirmed value.
Test: qHTS assay for MDR1-selective chemotherapeutics: Primary screen using the parental adenocarcinoma cell KB-3-1; note: nearly all actives have a fitted effect of over 60% in size
Conditions: KB-3-1 viability, CellTiter-Glo ATP luminescence, 72 h; activity change, negative = cytotoxic: at 46.1 µM (top of the series)
Outline: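 KB-3-1 cells, DMEM (no phenol red) + 10% FBS; compound by pin transfer, 72 h, 37 °C. Readout: CellTiter-Glo luminescence after 10 min. Data normalized, curve-fitted.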
% is set by controls: 0 for no effect and ±100 for the full control effect; potency is the fitted concentration of half-maximal effect.

Row | Compound | Potency | activity change, negative = cytotoxic
1 | CC(C(=O)Nc1ccc2c(c1)OCO2)N(C)CC(=O)Nc1ccccc1Cl (configuration not stated) | inactive | 
2 | CC1CCCCC12NC(=O)N(CC(=O)Nc1ccc(N3CCCCC3)cc1)C2=O (configuration not stated) | inconclusive: 14.6 µM [cytotoxic, single point] | 
3 | COc1ccc(N2CCN(c3ccc(-c4nc(-c5ccccc5)no4)cc3[N+](=O)[O-])CC2)cc1 | inactive | 
4 | CC(=O)NC(CC(=O)OCC(=O)Nc1ccc2c(c1)OCO2)c1ccccc1 (configuration not stated) | inconclusive: 29.1 µM [rising, single point] | 
5 | Cc1ccc(N(Cc2cccs2)C(=O)C(C)Oc2ccc(Cl)c(C)c2)cc1 (configuration not stated) | inconclusive: 29.1 µM [cytotoxic, single point] | 
6 | CCOc1ccc(Oc2ccccc2NC(=O)CSCC(=O)Nc2cc(C)on2)cc1 | inconclusive: 7.31 µM [cytotoxic, partial curve] | 
7 | Cc1cccc(C)c1NC(=O)C(c1ccccc1OC(F)(F)F)N1CCC(c2ccccc2)CC1 (configuration not stated) | inactive | 
8 | CCOC(=O)N1CCC(NC(=O)c2ccc3c(c2)N=C(CC)c2cc(C)ccc2S3)CC1 | active: 7.31 µM | 
9 | Cn1c(C(=O)NC2CCCC2)cc2c(=O)n(C)c3ccccc3c21 | inconclusive: 14.6 µM [cytotoxic, partial curve, poor fit] | 
10 | CCOc1ccc(C(=O)Nc2cc(NC(=O)c3ccc(OCC)c(Cl)c3)cc(C(=O)O)c2)cc1Cl | inactive | 
11 | O=C(O)c1ccc(/C=N/NC(=O)C(O)(c2ccccc2)c2ccccc2)cc1 | inactive | 
12 | Cc1cc(C)c2nccc(/C=C/c3ccc(N(C)C)cc3)c2c1 | inconclusive: 18.4 µM [cytotoxic, single point] | 
13 | O=[N+]([O-])c1ccc(Cl)cc1NCc1cccnc1 | inconclusive: 16.4 µM [cytotoxic, single point] | 
14 | Cc1c(C(=O)O)c(O)cc2c1C(=O)c1c(O)c([C@@H]3O[C@H](CO)[C@@H](O)[C@H](O)[C@H]3O)c(O)c(O)c1C2=O | inactive | 
15 | CN1CCN(c2ccc(NC(=O)c3ccccc3Br)cc2)CC1 | inactive | 
16 | Cc1ccc(CN2[C@@H](CC3CCCCC3)COCCS2(=O)=O)cc1 | inconclusive: 23.1 µM [cytotoxic, single point] | 
17 | COc1ccc(OC)c(NC(=O)C(C)OC(=O)c2cc3ccccc3[nH]2)c1 (configuration not stated) | inconclusive: 18.4 µM [cytotoxic, single point] | 
18 | CCN(Cc1ccccc1)C(=O)c1cc(-c2ccccc2)n[nH]1 | inactive | 
19 | Cc1ccc(Cl)cc1N1CCN(C(=O)CN2C(=O)COc3ccc(S(=O)(=O)N4CCCCCC4)cc32)CC1 | inconclusive: 20.6 µM [cytotoxic, single point] | 
20 | Cc1ccc(C(=O)Cn2c(C(=O)OCCO)cc3ccccc32)cc1 | inconclusive: 29.1 µM [cytotoxic, single point] | 
21 | C=CCN=C1CC(C)(C)CC(=O)/C1=C(\O)c1ccccc1 | inactive | 
22 | CC(C)C[C@@H](CSc1ccc(Br)cc1)N1CCN(CCc2ccccc2)CCC1=O | inconclusive: 29.1 µM [cytotoxic, single point] | 
23 | CC(=O)c1ccc(-c2nc3c4ccccc4ccn3c2C(C)=O)o1 | inconclusive: 29.1 µM [rising, single point] | 

Row | Compound | Potency | activity change, negative = cytotoxic
24 | CCN(CC)S(=O)(=O)c1ccc2c(c1)N(CC(=O)N1CCN(c3ccc(OC)cc3)CC1)C(=O)CO2 | inactive | 
25 | Cc1ccc(C)c(NC(=O)c2cc[n+](C)cc2)c1 |  | inconclusive: -14.4%
26 | Nc1nc(COC(=O)c2ccc3c(c2)OCCO3)nc(Nc2ccccc2)n1 | inactive | 
27 | COc1ccc(-c2nc3ccc(Br)cn3c2Cc2ccc(C)cc2)cc1OC | inconclusive: 29.1 µM [cytotoxic, single point] | 
28 | CCOc1ccc2nc(S(=O)(=O)NC(=O)C3(C)CCN3C(=O)CCc3cccs3)sc2c1 (configuration not stated) | inactive | 
29 | C=CCc1cccc(/C=N/NC(=O)C(C)Nc2cccc(C)c2)c1O (configuration not stated) | inconclusive: 18.4 µM [cytotoxic, single point] | 
30 | CC(=O)Nc1ccc2c(c1)Cc1cc(N3C(=O)C=CC3=O)ccc1-2 | inconclusive: 29.1 µM [cytotoxic, single point] | 
31 | Cc1cc(C(=O)CN2C(=O)NC3(CCCCC3)C2=O)c(C)n1C | inactive | 
32 | COc1ccc(NC(=O)NCCN2CCN(c3cc(OC)ccc3OC)CC2)cc1 | inactive | 
33 | C=CC(=O)Nc1cccc(N(C)c2ccnc(Nc3ccc(N4CCN(C)CC4)cc3)n2)c1 | inconclusive: 5.17 µM [cytotoxic, partial curve] | 
34 | CCOC(=O)c1ccc2c(c1)nc(SCC(=O)c1cc3ccccc3o1)n2CC | inactive | 
35 | CCc1ccc2c(c1)C(c1ccc([N+](=O)[O-])cc1)=NNC(c1ccc(F)cc1)=N2 | inconclusive: 29.1 µM [cytotoxic, single point] | 
36 | COc1ccc(C(=O)Nc2nc(-c3cccs3)cs2)cc1 | inconclusive: 29.1 µM [cytotoxic, single point] | 
37 | COc1ccc(/C=C2\COc3ccccc3C2=O)c(OC)c1 | inconclusive: 20.6 µM [cytotoxic, single point] | 
38 | O=c1[nH]c2ccccc2cc1-c1nnn(-c2ccc(F)cc2)n1 | inconclusive: 32.6 µM [cytotoxic, single point] | 
39 | CCN(CC)S(=O)(=O)c1ccc(Oc2ccccc2)cc1 | inconclusive: 23.1 µM [cytotoxic, partial curve, poor fit] | 
40 | CCOc1ccc(NC(=O)CSc2nnc(-c3ccco3)n2N)cc1 | inconclusive: 20.6 µM [rising, partial curve, poor fit] | 
41 | CN1CCN(c2ccc([N+](=O)[O-])cc2C(=O)c2ccc(Cl)cc2)CC1 | active: 2.31 µM | 
42 | OC(CSc1nnnn1-c1ccccc1)Cn1c2ccccc2c2ccccc21 (configuration not stated) | inconclusive: 29.1 µM [cytotoxic, single point] | 
43 | Cc1cc(-c2ccccc2)nc(N(C)C)c1S(C)(=O)=O | inactive | 
44 | Nc1ccccc1C(=O)N/N=C1/C2CN3CCN(C2)CC1(Cc1ccccc1)C3 | inconclusive: 0.517 µM [rising, partial curve, poor fit] | 
45 | O=C(c1ccccc1)c1sc(Nc2ccc3c(c2)OCO3)nc1-c1ccccc1 | inconclusive: 29.1 µM [cytotoxic, single point] | 
46 | COC(=O)C1=NN(c2ccc(C)cc2)C2(S1)SC(C(C)=O)=C(C)N2c1ccccc1 (configuration not stated) | inconclusive: 20.6 µM [cytotoxic, single point] | 

Row | Compound | Potency | activity change, negative = cytotoxic
47 | CN1CCN(c2ccc(CNC(=O)c3cccc4c(-c5ccc(F)c(F)c5)coc34)cc2)CC1 | inconclusive: 29.1 µM [cytotoxic, single point] | 
48 | N#CCC(=O)Nc1ccc(C(=O)OCC(=O)N2CCCC2=O)cc1 | inconclusive: 29.1 µM [rising, single point] | 
49 | CCC[C@@H](CN1CCC[C@H]1CN1C(N)=NC[C@@H]1Cc1ccccc1)N1C[C@@H]([C@H](C)CC)N(CCCC2CCCC2)C1=N | inconclusive: 29.1 µM [cytotoxic, single point] | 
50 | O=C(NCCc1ccccc1)C1CCCN(C(=O)Nc2ccc(F)cc2)C1 (configuration not stated) | inconclusive: 29.1 µM [cytotoxic, single point] | 
51 | CCCCCCCCNC(=O)CCNC(=O)c1ccc(C(C)(C)C)cc1 | inactive | 
52 | CCOc1ccnc2c1c(=O)n(Cc1cc(OC)cc(OC)c1)c(=O)n2C | inactive | 
53 | O=[N+]([O-])c1ccccc1N(CC1CO1)S(=O)(=O)c1ccccc1 (configuration not stated) | inconclusive: 23.1 µM [cytotoxic, single point] | 
54 | Cc1nc2c(C)cccc2cc1C(=O)N/N=C/c1cccc([N+](=O)[O-])c1 | inconclusive: 29.1 µM [cytotoxic, single point] | 
55 | O=C(Nc1ccc(Cl)cc1N1CCOCC1)C1CCCCC1 | inconclusive: 29.1 µM [cytotoxic, single point] | 
56 | Cn1c(=O)n(C)c2cc([N+](=O)[O-])c(N3CCN(C(=O)c4ccccc4Cl)CC3)cc21 | active: 23.1 µM | 
57 | N#Cc1ccc(N2CCN(S(=O)(=O)c3ccc4c(c3)CC(=O)N4)CC2)cc1 | inconclusive: 29.1 µM [rising, single point] | 
58 | CC(C)C[C@@H](CSc1ccccc1)N1CCN(CCc2ccccc2)CCC1=O | inconclusive: 29.1 µM [cytotoxic, single point] | 
59 | COc1ccc(NS(=O)(=O)c2ccc(N/N=C(\C)c3ccncc3)c([N+](=O)[O-])c2)cc1 | inconclusive: 20.6 µM [cytotoxic, single point] | 
60 | O=C(N/N=C/c1ccc([N+](=O)[O-])s1)C(O)c1ccccc1 (configuration not stated) | inconclusive: 18.4 µM [cytotoxic, single point] | 
61 | Cc1ccc(S(=O)(=O)N2CCN(C(=O)[C@H](Cc3ccccc3)NC(=O)c3ccco3)CC2)cc1 | inconclusive: 32.6 µM [cytotoxic, single point] | 
62 | O=[N+]([O-])c1ccc2c(c1)nnn2-c1ccccc1 | inconclusive: 32.6 µM [cytotoxic, single point] | 
63 | O=C1CN(/N=C/c2ccc([N+](=O)[O-])o2)C(=O)N1 |  | inconclusive: 0%
64 | COC(=O)CSc1nc(COc2ccccc2)nc2ccccc12 | inconclusive: 58 µM [cytotoxic, full curve, poor fit] | 
65 | COc1ccc(N=Cc2sc(O)c3ccccc23)cc1 | inactive | 
66 | CC1CN(S(=O)(=O)c2cccc(C(=O)Nc3ccccc3N3CCCC3)c2)CC(C)O1 (configuration not stated) | inconclusive: 29.1 µM [cytotoxic, single point] | 
67 | COC(=O)/C(=C(/F)Sc1cc(C)c(O)c(C)c1)C(F)(F)F | inconclusive: 20.6 µM [cytotoxic, single point] | 

Already shown: 4 of the compounds above.
Row | Compound | Potency | activity change, negative = cytotoxic
49 | CCC[C@@H](CN1CCC[C@H]1CN1C(N)=NC[C@@H]1Cc1ccccc1)N1C[C@@H]([C@H](C)CC)N(CCCC2CCCC2)C1=N | inconclusive: 29.1 µM [cytotoxic, single point] | 
50 | O=C(NCCc1ccccc1)C1CCCN(C(=O)Nc2ccc(F)cc2)C1 (configuration not stated) | inconclusive: 29.1 µM [cytotoxic, single point] | 
51 | CCCCCCCCNC(=O)CCNC(=O)c1ccc(C(C)(C)C)cc1 | inactive | 
52 | CCOc1ccnc2c1c(=O)n(Cc1cc(OC)cc(OC)c1)c(=O)n2C | inactive | 

Source: PubChem BioAssay AID1347075 (National Center for Advancing Translational Sciences (NCATS), 2019)
